Tests used:
3T3 cells = test: Survey of liquid crystals for alignment by cells; conditions: cultured 3T3 cells
[1] = Investigation of phospholipid influence on liquid crystal alignment; parameters: key: C=cholesteric alignment; U=unaligned; H=homeotropically aligned; conditions: for Liquid crystal alignment, Chol: cholesterol on glass slide
[2] = 2 ul 0.01 M in chloroform on glass slide

Row | Compound | Liquid crystal alignment, 3T3 cells (3T3 cells) | Liquid crystal alignment, DOLPC [1, 2] | Liquid crystal alignment, DOPC [1, 2] | Liquid crystal alignment, DOPE [1, 2] | Liquid crystal alignment, DOPG [1, 2] | Liquid crystal alignment, DOPS [1, 2] | Liquid crystal alignment, Chol [1] | Liquid crystal alignment, DOPA ([1]; DOPA, 2 ul 0.01 M in chloroform on glass slide)
1 | CCCCCCCCc1ccc(-c2ccc(C#N)cc2)cc1 [4OCB, 4′-octyl-4-biphenyl-carbonitrile] | Homeotropic |  |  |  |  |  |  | 
2 | CCCCCc1ccc(-c2ccc(C#N)cc2)cc1 [5CB, 4-cyano-4′-pentylbiphenyl] | Homeotropic | H | H | H | H | U | U | 
3 | CCCCCC[C@H]1CC[C@H](c2ccc(N=C=S)cc2)CC1 [6CHBT, 1-(trans-4-hexylcyclohexyl)-4-isothiocyanato-benzene] | Homeotropic | H | H | H | H | U | U | H
